Measured values taken from article doi:10.1101/2020.05.25.113944.
These are yes or no findings as the source states them, for the method shown. In cells and extracts the contact can be indirect. Some results given as binding are weak or reduced against the parent protein; the word gives no strength. For some assays here: Where a sequence is shown, tags or fusion partners need not be part of it.

B1: MGRN1 (Mahogunin Ring Finger 1), mouse full-length, C-terminal 3xFLAG tag, transiently expressed in HEK293T cells (enzyme, UniProt Q9D074-2 1-533)
chain: MGSILSRRIAGVEDIDIQANSAYRYPPKSAGNYFASHFFMGGEKFDTPHPEGYLFGENMDLNFLGSRPVQFPYVTPAPHEPVKTLRSLVNIRKDSLRLVRYKEDADSPTEDGEKPRVLYSLEFTFDADARVAITIYCQAVEELVNGVAVYSCKNPSLQSETVHYKRGVSQQFSLPSFKIDFSEWKDDELNFDLDRGVFPVVIQAVVDEGDVVEVTGHAHVLLAAFEKHVDGSFSVKPLKQKQIVDRVSYLLQEIYGIENKNNQETKPSDDENSDNSSECVVCLSDLRDTLILPCRHLCLCTSCADTLRYQANNCPICRLPFRALLQIRAVRKKPGALSPISFSPVLAQSVDHDEHSSSDSIPPGYEPISLLEALNGLRAVSPAIPSAPLYEEITYSGISDGLSQASCPLAGLDRIMESGLQKGKTQSKSPDSTLRSPSFPIHEEDEEKLSEDSDAPLPPSGVELVLRESSSPESFGTEEGDEPSLKQGSRVPSIDDVLQDGSPQHHGCSQPVPPADIYLPALGPESCSVGIEE
B2: endogenous MGRN1 of NIH/3T3 cells (enzyme, UniProt Q9D074-2 1-533)
chain: MGSILSRRIAGVEDIDIQANSAYRYPPKSAGNYFASHFFMGGEKFDTPHPEGYLFGENMDLNFLGSRPVQFPYVTPAPHEPVKTLRSLVNIRKDSLRLVRYKEDADSPTEDGEKPRVLYSLEFTFDADARVAITIYCQAVEELVNGVAVYSCKNPSLQSETVHYKRGVSQQFSLPSFKIDFSEWKDDELNFDLDRGVFPVVIQAVVDEGDVVEVTGHAHVLLAAFEKHVDGSFSVKPLKQKQIVDRVSYLLQEIYGIENKNNQETKPSDDENSDNSSECVVCLSDLRDTLILPCRHLCLCTSCADTLRYQANNCPICRLPFRALLQIRAVRKKPGALSPISFSPVLAQSVDHDEHSSSDSIPPGYEPISLLEALNGLRAVSPAIPSAPLYEEITYSGISDGLSQASCPLAGLDRIMESGLQKGKTQSKSPDSTLRSPSFPIHEEDEEKLSEDSDAPLPPSGVELVLRESSSPESFGTEEGDEPSLKQGSRVPSIDDVLQDGSPQHHGCSQPVPPADIYLPALGPESCSVGIEE

What was measured:
Test in all cases: co-IP
[1] = target: MEGF8^ΔCtail (a.a. 1-2607), 1D4 tagged, transiently expressed in HEK293T cells (human) (UniProt Q7Z7M0)
[2] = target: T1, MEGF8^ΔN (a.a. 2573-2778; a.a. 26-2572 deleted), 1D4 tagged, transiently expressed in HEK293T cells (human) (UniProt Q7Z7M0)
T1 sequence: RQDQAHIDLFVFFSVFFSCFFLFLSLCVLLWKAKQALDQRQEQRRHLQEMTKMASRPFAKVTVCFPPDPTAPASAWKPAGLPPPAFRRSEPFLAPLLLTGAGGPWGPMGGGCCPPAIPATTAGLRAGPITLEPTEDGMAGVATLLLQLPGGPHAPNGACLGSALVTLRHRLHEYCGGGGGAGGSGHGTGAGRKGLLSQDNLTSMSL

[3] = target: MEGF8^ΔMASRPFA (a.a. 2625-2631 deleted), 1D4 tagged, transiently expressed in HEK293T cells (human) (UniProt Q7Z7M0)
[4] = target: MEGF8, 1D4 tagged, stably expressed in Megf8^-/- NIH/3T3 cells (human) (UniProt Q7Z7M0)
[5] = target: MEGF8^ΔCtail (a.a. 1-2607), 1D4 tagged, stably expressed in Megf8^-/- NIH/3T3 cells (human) (UniProt Q7Z7M0)

Row | Binder | binding [1] | binding [2] | binding [3] | binding [4] | binding [5]
1 | B1 | no binding | binds | no binding | – | –
2 | B2 | – | – | – | binds | no binding
